Reference: PMC12279241
These are yes or no findings as the source states them, for the method shown. A result given as binding can be weak or reduced; the word gives no strength. For some assays here: Binding seen in cells or lysates may run through a third protein.

T1: TMCO3 (IP experiments whose cells are not stated) (UniProt Q6UWJ1)
T1 sequence: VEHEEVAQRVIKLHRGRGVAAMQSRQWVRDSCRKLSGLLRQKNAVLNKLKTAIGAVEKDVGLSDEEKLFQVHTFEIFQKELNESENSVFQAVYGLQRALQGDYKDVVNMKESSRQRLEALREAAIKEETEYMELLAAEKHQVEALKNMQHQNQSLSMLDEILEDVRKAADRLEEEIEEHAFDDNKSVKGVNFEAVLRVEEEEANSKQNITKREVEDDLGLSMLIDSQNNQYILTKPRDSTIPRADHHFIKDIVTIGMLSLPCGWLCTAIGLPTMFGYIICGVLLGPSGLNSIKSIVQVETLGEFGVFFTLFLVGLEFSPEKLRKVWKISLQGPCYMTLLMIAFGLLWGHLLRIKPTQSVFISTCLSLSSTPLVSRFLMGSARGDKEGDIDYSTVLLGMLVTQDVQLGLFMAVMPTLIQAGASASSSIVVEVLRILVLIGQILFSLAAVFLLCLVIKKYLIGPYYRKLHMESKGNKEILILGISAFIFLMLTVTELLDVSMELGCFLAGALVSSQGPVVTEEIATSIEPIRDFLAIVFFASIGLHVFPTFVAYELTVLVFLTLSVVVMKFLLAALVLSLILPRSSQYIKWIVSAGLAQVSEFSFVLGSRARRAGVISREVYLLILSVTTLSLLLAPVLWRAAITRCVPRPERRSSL

T2: TMCO3‐S85A (UniProt Q6UWJ1)
T2 sequence: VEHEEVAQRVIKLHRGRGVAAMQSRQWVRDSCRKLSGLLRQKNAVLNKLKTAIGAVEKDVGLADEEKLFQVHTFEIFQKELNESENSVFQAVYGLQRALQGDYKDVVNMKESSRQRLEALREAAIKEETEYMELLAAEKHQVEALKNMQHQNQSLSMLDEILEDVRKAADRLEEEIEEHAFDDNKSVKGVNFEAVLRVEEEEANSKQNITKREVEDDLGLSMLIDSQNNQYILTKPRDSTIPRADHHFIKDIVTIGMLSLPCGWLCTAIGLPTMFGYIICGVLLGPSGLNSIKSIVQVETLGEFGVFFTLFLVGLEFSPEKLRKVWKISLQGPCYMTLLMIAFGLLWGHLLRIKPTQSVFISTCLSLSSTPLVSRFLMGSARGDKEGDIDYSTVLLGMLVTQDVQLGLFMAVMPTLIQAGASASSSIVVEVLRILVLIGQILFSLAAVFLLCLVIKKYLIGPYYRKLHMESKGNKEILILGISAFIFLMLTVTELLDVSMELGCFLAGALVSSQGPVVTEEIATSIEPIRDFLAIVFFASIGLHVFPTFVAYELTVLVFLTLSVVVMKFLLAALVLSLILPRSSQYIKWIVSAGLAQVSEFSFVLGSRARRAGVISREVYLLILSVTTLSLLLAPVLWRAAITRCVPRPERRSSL

T3: TMCO3‐S85D (UniProt Q6UWJ1)
T3 sequence: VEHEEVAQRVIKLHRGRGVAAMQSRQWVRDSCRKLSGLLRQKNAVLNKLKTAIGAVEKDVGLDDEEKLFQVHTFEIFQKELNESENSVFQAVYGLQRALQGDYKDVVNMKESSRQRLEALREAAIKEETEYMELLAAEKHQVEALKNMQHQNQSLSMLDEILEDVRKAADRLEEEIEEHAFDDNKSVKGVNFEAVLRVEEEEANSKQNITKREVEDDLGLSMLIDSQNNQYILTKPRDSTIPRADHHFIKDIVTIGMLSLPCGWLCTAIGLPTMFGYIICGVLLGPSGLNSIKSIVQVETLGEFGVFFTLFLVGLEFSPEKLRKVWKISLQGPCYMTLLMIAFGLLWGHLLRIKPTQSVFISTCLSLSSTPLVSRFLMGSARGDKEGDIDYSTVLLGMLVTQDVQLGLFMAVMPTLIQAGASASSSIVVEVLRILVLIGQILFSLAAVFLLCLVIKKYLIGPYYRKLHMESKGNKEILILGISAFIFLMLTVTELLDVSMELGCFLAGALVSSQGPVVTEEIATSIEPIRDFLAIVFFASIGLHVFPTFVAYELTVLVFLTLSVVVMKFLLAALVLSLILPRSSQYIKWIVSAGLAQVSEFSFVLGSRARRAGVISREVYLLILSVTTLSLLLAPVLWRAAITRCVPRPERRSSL

B1: TMCO3 (transmembrane and coiled‐coil domains 3), full length, expressed in 293T cells (protein, UniProt Q6UWJ1 23-677)
chain: VEHEEVAQRVIKLHRGRGVAAMQSRQWVRDSCRKLSGLLRQKNAVLNKLKTAIGAVEKDVGLSDEEKLFQVHTFEIFQKELNESENSVFQAVYGLQRALQGDYKDVVNMKESSRQRLEALREAAIKEETEYMELLAAEKHQVEALKNMQHQNQSLSMLDEILEDVRKAADRLEEEIEEHAFDDNKSVKGVNFEAVLRVEEEEANSKQNITKREVEDDLGLSMLIDSQNNQYILTKPRDSTIPRADHHFIKDIVTIGMLSLPCGWLCTAIGLPTMFGYIICGVLLGPSGLNSIKSIVQVETLGEFGVFFTLFLVGLEFSPEKLRKVWKISLQGPCYMTLLMIAFGLLWGHLLRIKPTQSVFISTCLSLSSTPLVSRFLMGSARGDKEGDIDYSTVLLGMLVTQDVQLGLFMAVMPTLIQAGASASSSIVVEVLRILVLIGQILFSLAAVFLLCLVIKKYLIGPYYRKLHMESKGNKEILILGISAFIFLMLTVTELLDVSMELGCFLAGALVSSQGPVVTEEIATSIEPIRDFLAIVFFASIGLHVFPTFVAYELTVLVFLTLSVVVMKFLLAALVLSLILPRSSQYIKWIVSAGLAQVSEFSFVLGSRARRAGVISREVYLLILSVTTLSLLLAPVLWRAAITRCVPRPERRSSL

Tests used:
[1] = biological target: T1, TMCO3 (IP experiments whose cells are not stated); assay: co-IP; IP assays with increasing IGF stimulation time and increasing dosage of TMCO3; cells not given
[2] = biological target: T1, TMCO3 (IP experiments whose cells are not stated); assay: co-IP; IP after transfection of TMCO3-WT, TMCO3-S85A, TMCO3-S85D or control; cells not given
[3] = biological target: T2, TMCO3‐S85A; assay: as above
[4] = biological target: T3, TMCO3‐S85D; assay: as above
[5] = biological target: GST‐AKT; assay: pull-down; GST pull-down; GST-AKT purified from E.coli, Flag-TMCO3 purified from 293T cells; both purified

Row | Molecule | binding [1] | binding [2] | binding [3] | binding [4] | binding [5]
1 | AKT (IP experiments whose cells are not stated) | binds | binds | binds | binds | –
2 | B1 | – | – | – | – | binds
